This is one part of the list. These are further read-outs of the screen, such as a control signal, another cell line or another target. No call is given for them. Most of these compounds were active or inconclusive in the main read-out, so they are no random draw. The note in brackets gives the kind of curve behind each potency; many fits are weak.
Test: qHTS Assay for Lipid Storage Modulators in Drosophila S3 Cells;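 for cell number change: cells counted by Cell Tracker Red CMTPX staining in the red channel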
Conditions: BODIPY lipid droplet fluorescence, 18-24 h; for cell number change: measured here: cell count max response, cells fed with added oleic acid
Outline: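 Drosophila S3 cells loaded with oleic acid (400 uM, as added) and compounds at several concentrations; lipid droplets imaged by 488-nm laser-scanning cytometry, 500–530 nm intensity and object ratio to cell channel. Percent activity normalized to 20 uM Triacsin C.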

[1] = measured here: lipid fluorescence (Fed channel) AC50, cells fed with added oleic acid
[2] = measured here: cell number channel AC50, cells fed with added oleic acid

C/C(=N/N1CCN(Cc2cccc3ccccc23)CC1)c1cccnc1
cell number change: -3.79% | AC50 [1]: 2.91 µM [falling, single point]

CCOC(=O)c1c(Nc2ccc(Cl)cc2)sc(/C=C2\C=Nc3ccccc32)c1O
cell number change: 38% | AC50 [1]: 1.3 µM [rising, full curve]

COc1ccc(C2=NCCNC(C(F)(F)F)=C2)cc1
cell number change: -8.36% | AC50 [1]: 0.731 µM [falling, full curve]

CN(C(=O)C1CCC1C(=O)O)c1nc(-c2ccc(Cl)s2)cs1 (configuration not stated)
cell number change: -45.7% | AC50 [2]: 29.1 µM [falling, single point] | AC50 [1]: 29.1 µM [falling, single point]

COc1ccc(C(C)NC(=O)Cc2cccs2)cc1 (configuration not stated)
cell number change: -17.3% | AC50 [2]: 0.82 µM [falling, full curve, poor fit]

CCOc1ccc(NC(=O)COC(=O)COc2cccc3c2OC(C)(C)C3)cc1
cell number change: 1.62%

Cn1c(=O)c(=O)n(C)c2cc(N3CCOCC3)c(NS(=O)(=O)c3ccc(F)c(Cl)c3)cc21
AC50 [1]: 0.58 µM [rising, single point]

Cc1cc(NC(=O)CSc2nc(C(C)C)nc3sc(C)c(C)c23)no1
cell number change: -3.04% | AC50 [1]: 0.146 µM [rising, full curve]

O=C(CSc1nnc(-c2cnccn2)n1Cc1ccco1)c1ccc2ccccc2c1
cell number change: 3.81% | AC50 [1]: 0.082 µM [rising, full curve, poor fit]

Cc1ccc(CNC(=O)C2CCC(CNc3nc(=S)[nH]c4ccccc34)CC2)cc1 (configuration not stated)
AC50 [1]: 3.66 µM [rising, partial curve, poor fit]

COc1ccc(NS(=O)(=O)c2ccc3oc(Nc4ccc5c(c4)OCCO5)nc3c2)cc1
cell number change: 90.2% | AC50 [2]: 10.3 µM [rising, partial curve]

COc1ccc(NC(=O)Cn2c(=O)oc3cc(S(=O)(=O)N4CCCC4)ccc32)cc1
cell number change: 8.68%

O=C(Nc1cccc(F)c1)c1ccc(-c2ccccc2C(F)(F)F)o1
cell number change: 41.6% | AC50 [2]: 14.6 µM [rising, partial curve, poor fit] | AC50 [1]: 7.31 µM [rising, partial curve]

COc1ccc(S(=O)(=O)N2CCOC2CNC(=O)C(=O)NCCCc2ccccc2)cc1 (configuration not stated)
cell number change: -11.2%

CCCc1cc(C(=O)Nc2cc(Br)ccc2O)no1
cell number change: -4.5% | AC50 [1]: 11.6 µM [falling, partial curve]

Cc1n[nH]c(C)c1S(=O)(=O)N1CCCC(C(=O)NCc2ccccc2Cl)C1 (configuration not stated)
cell number change: 16.8% | AC50 [1]: 6.51 µM [rising, single point]

CCOC(=O)c1c(NC(=O)CSc2nc3ccccc3c(=O)n2-c2ccccc2)sc(C(C)=O)c1C
cell number change: 21.9% | AC50 [1]: 7.31 µM [rising, partial curve, poor fit]

O=C(O)c1[nH]c2ccc(Cl)cc2c1CC(=O)N1CCN(C(=O)c2ccco2)CC1
cell number change: -42.4% | AC50 [2]: 18.4 µM [falling, single point] | AC50 [1]: 20.6 µM [falling, single point]

O=C(CSC1=NCCN1)NC12CC3CC(CC(C3)C1)C2
cell number change: -25.7% | AC50 [1]: 5.8 µM [falling, full curve]

OCc1csc(=Nc2ccccc2)n1-c1ccccc1
cell number change: -9.26% | AC50 [1]: 0.231 µM [falling, full curve, poor fit]

NC(=O)CC(NC(=O)c1ccccc1)c1ccc(NC2CCN(Cc3ccccc3)CC2)c([N+](=O)[O-])c1 (configuration not stated)
cell number change: 9.58%

COc1ccc(S(=O)(=O)N2CCCCCC2)cc1C(=O)N1CCCC(C(F)(F)F)C1 (configuration not stated)
cell number change: 40.2% | AC50 [2]: 4.11 µM [rising, full curve, poor fit]

Cc1ccc(-n2nc3c(c2NC(=O)c2ccc(F)c(F)c2)CS(=O)(=O)C3)cc1
cell number change: -13.4% | AC50 [1]: 29.1 µM [falling, single point]

O=C(O)CC(c1ccc(F)cc1F)N1Cc2ccccc2C1=O (configuration not stated)
cell number change: -22.4% | AC50 [1]: 11.6 µM [falling, partial curve]

Cc1ccc(NC(=O)CCC(=O)c2cccs2)cc1F
cell number change: 8.97% | AC50 [1]: 29.1 µM [rising, single point]

CC1CCN(C(=O)CNC(=O)CNS(=O)(=O)c2ccccc2)CC1
cell number change: 29.4%

Cc1onc(-c2ccccc2Cl)c1C(=O)N1CCN(Cc2ccc3c(c2)OCO3)CC1
cell number change: -35.5% | AC50 [2]: 14.6 µM [falling, partial curve] | AC50 [1]: 23.1 µM [falling, partial curve, poor fit]

CSc1ccc(C(=O)C2CCCN(C(=O)Cn3cnnn3)C2)cc1 (configuration not stated)
cell number change: 17.5% | AC50 [1]: 25.1 µM [rising, single point]

Fc1cccc(Cl)c1CSc1ccc2nnc(-c3ccccn3)n2n1
cell number change: 1.23%

Cc1ccccc1NC(=O)C(NC1CCCCC1)C(C)C (configuration not stated)
cell number change: 19.1% | AC50 [1]: 0.0651 µM [rising, full curve, poor fit]

CC(=O)Nc1ccc(NC(=O)c2ccc(CSc3ccccc3)o2)cc1
cell number change: 18% | AC50 [1]: 8.2 µM [rising, partial curve, poor fit]

Cc1cc(C)cc(-n2ccnc2SCC(=O)Nc2ccc3c(c2)OCCO3)c1
AC50 [2]: 2.06 µM [rising, partial curve]

O=C1CCN(CCc2ccccc2)CCN1[C@H](CO)c1ccccc1
cell number change: 0.299%

Cc1cc2[nH]c(=O)c(=O)[nH]c2cc1S(=O)(=O)N1CCN(c2cccc(C)c2C)CC1
cell number change: 33.7% | AC50 [2]: 32.6 µM [rising, single point] | AC50 [1]: 11.6 µM [falling, partial curve]

CCCCNC(=S)NCc1ccc2[nH]c(C)cc2c1
cell number change: -20.8% | AC50 [1]: 8.2 µM [rising, partial curve]

Nc1ccc2oc(=O)c3ccccc3c2c1
cell number change: -34.2% | AC50 [2]: 29.1 µM [falling, single point]

O=C(O)CSc1nnc(-c2ccc(Cl)cc2Cl)n1-c1ccc(Cl)cc1
cell number change: 19.3%

N#Cc1c(C(F)(F)F)cc(-c2ccccc2)[nH]c1=O
cell number change: -1.15%

COc1ccc(OCC(=O)Nc2ccc(S(=O)(=O)N3CCCCC3)cc2)cc1
cell number change: -32.9% | AC50 [2]: 20.6 µM [falling, single point]

Clc1ccc(Cl)c(OCCN2CCCC2)c1
cell number change: 18.2%

Cc1ccc(NC(=O)c2nnn(-c3ccc4c(c3)OCCO4)c2N)cc1
cell number change: -12.8%

COc1ccccc1-c1nnc(SCC(=O)Nc2cc(C)on2)o1
cell number change: 46.6% | AC50 [2]: 29.1 µM [rising, single point] | AC50 [1]: 20.6 µM [rising, single point]

Cc1nonc1CC(=O)N1CCc2c([nH]c3ccccc23)C1c1ccccc1F (configuration not stated)
cell number change: 3.75% | AC50 [1]: 0.116 µM [falling, full curve, poor fit]

Brc1ccccc1C1N=C(c2ccccc2)NO1 (configuration not stated)
cell number change: 0.451% | AC50 [1]: 6.51 µM [falling, single point]

OCCC1CN(Cc2ccc3c(c2)CCO3)CCN1C1CCCC1 (configuration not stated)
cell number change: 31.5%

C=CCn1c(SC(C)C(=O)Nc2ccc(F)c(F)c2F)nnc1C1CC1 (configuration not stated)
cell number change: 27%

Cc1ccc(S(=O)(=O)NCC(=O)N(CC(=O)NC2CCCC2)c2ccc3c(c2)OCCO3)cc1
cell number change: -1.18% | AC50 [2]: 0.82 µM [rising, single point]

O=C(/C=C/c1ccc(O)c(O)c1)c1ccccc1O
cell number change: 1.36% | AC50 [1]: 29.1 µM [falling, single point]

Cc1c([N+](=O)[O-])nnn1-c1cc(Cl)cc(Cl)c1
cell number change: 0.797% | AC50 [2]: 1.03 µM [falling, full curve] | AC50 [1]: 0.731 µM [falling, partial curve, poor fit]

Cc1nc(-c2c(-c3ccc(O)cc3O)noc2C(F)(F)F)cs1
cell number change: -8.2% | AC50 [1]: 25.9 µM [rising, single point]

COc1ccc(-c2[nH]ncc2CN(C)C(C)c2ccon2)cc1F (configuration not stated)
cell number change: -14% | AC50 [1]: 29.1 µM [falling, single point]

Cn1c(NC(=O)c2ccc(C(C)(C)C)cc2)cc(=O)n(C)c1=O
cell number change: 64.9% | AC50 [2]: 18.4 µM [rising, single point] | AC50 [1]: 16.4 µM [rising, partial curve]

CCCCn1c(N)c(N(CC(C)C)C(=O)C2CCN(S(=O)(=O)c3ccc(C)cc3C)CC2)c(=O)[nH]c1=O
cell number change: -50% | AC50 [2]: 0.92 µM [falling, full curve]

Cn1c(=O)c2cc(S(=O)(=O)NCCC(=O)NC3CCCCCCC3)ccc2n(C)c1=O
cell number change: -9.12%

Cc1ccc(C2CC(c3cccc(C)c3)n3ncnc3N2)cc1 (configuration not stated)
cell number change: 36.6% | AC50 [2]: 32.6 µM [rising, single point] | AC50 [1]: 20.6 µM [rising, partial curve]

O=C(CN(C(=O)c1csnn1)c1ccccc1F)NCc1ccccc1
cell number change: 6.67%

COc1ccc(Cl)cc1NC(=O)CN(C)C(=O)CN1C(=O)NC2(CCCC2)C1=O
cell number change: -50% | AC50 [2]: 29.1 µM [falling, single point] | AC50 [1]: 29.1 µM [rising, single point]

CC(C(=O)O)N1C(=O)CSC1=S (configuration not stated)
cell number change: -35.3% | AC50 [2]: 1.03 µM [falling, full curve] | AC50 [1]: 29.1 µM [falling, single point]

Cc1ccc(CN2C(=O)C(Cc3ccccc3)Nc3ncnc(N4CCCCC4)c32)cc1 (configuration not stated)
cell number change: 4.95% | AC50 [2]: 6.51 µM [falling, single point]

COc1cc(Cl)c(C)cc1NC(=O)c1ccc(NS(=O)(=O)c2ccc(F)c(F)c2)cc1
cell number change: -9.54% | AC50 [2]: 0.00461 µM [rising, full curve, poor fit] | AC50 [1]: 29.1 µM [falling, single point]

Cc1cc(-c2ccco2)n(CC(=O)NCCN(C)C)n1
cell number change: -8.41% | AC50 [1]: 7.31 µM [rising, full curve, poor fit]

CCNC(=O)CN(c1ccccc1)S(=O)(=O)c1ccc(Cl)cc1
AC50 [1]: 0.651 µM [falling, single point]

— PubChem BioAssay AID2685 (National Center for Advancing Translational Sciences (NCATS), 2010)
